Data as given in PubChem BioAssay AID686938 (Drosophila RNAi Screening Center, 2013).

Assay: 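Fly genes required for calcium entry once internal stores are emptied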 (primary screen)
Cell system: Drosophila S2R+ cells
Reagents: long dsRNA against Drosophila genes, about 0.25 µg dsRNA per well, roughly 10,000 cells
Duration: 5 days of knock-down before the calcium assay
Conditions: thapsigargin (SERCA pump blocker) to empty calcium stores; entry signal taken 4 min after adding it
Measured: 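Duplicate raw fluo-4 intensities per well from a plate reader, at rest and four minutes after thapsigargin emptied calcium stores; entry-to-rest ratio filled for only some wells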
Reading the numbers: calcium entry signal: higher = stronger calcium signal after store depletion; entry to resting ratio: higher = more calcium entry relative to resting level; resting calcium signal: higher = higher resting calcium signal
Rule for the call: 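Called when the plate z-score of the entry-to-rest ratio, mean of duplicates, falls below −3; wells with low overall dye signal (Fmax z below −2) or more than five off-targets excluded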
Meaning of the calls: active = strongly reduced calcium entry; inactive = no strong reduction
The deposit covers about 23,000 reagents; this is a random part of those that have a named target and a result. Of all reagents, 75 (0.33%) are marked active. 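Raw plate signals without normalisation; calls rest on plate z-scores that were not deposited; ratio present for only 364 wells.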 Entries without a mark were called inactive. The numbers tell different reagents against one gene apart. A plus sign joins genes that one reagent is predicted to hit. Not stated in the record: the dose of the treatment.

gene knocked down	reagent	calcium entry signal, replicate 1 (fluorescence units)	calcium entry signal, replicate 2 (fluorescence units)	entry to resting ratio	resting calcium signal, replicate 1 (fluorescence units)	resting calcium signal, replicate 2 (fluorescence units)
asRNA:CR31144 + RpL3	1	1.09e7	1.34e7		8.55e6	9.70e6
Rpp25 (Ribonuclease P/MRP subunit p25)	1	4.34e7	4.98e7		2.36e7	2.24e7
NimC4 (Nimrod C4)	1	4.43e7	3.00e7		2.00e7	1.43e7
Spn42Db (Serpin 42Db)	1	2.35e7	2.64e7		1.10e7	1.22e7
PH4alphaEFB (prolyl-4-hydroxylase-alpha EFB)	1	3.23e7	4.40e7		1.55e7	1.95e7
PH4alphaEFB (prolyl-4-hydroxylase-alpha EFB)	2	3.61e7	4.29e7		1.90e7	1.75e7
Eig71Ed (Ecdysone-induced gene 71Ed)	1	4.30e7	3.53e7		1.90e7	1.59e7
obst-B (obstructor-B)	1	4.48e7			2.17e7	
yl (yolkless)	1	2.47e7	3.46e7		1.40e7	1.72e7
CG33642	1	3.66e7	4.77e7		1.95e7	1.98e7
Act87E (Actin 87E)	1	2.97e7	3.10e7		1.60e7	1.46e7
CG31998	1	3.84e7	3.57e7		1.80e7	1.73e7
CG31998	2	3.89e7	5.66e7	2	1.94e7	2.28e7
Rme-8 (Receptor mediated endocytosis 8)	1	2.69e7	2.16e7		1.12e7	1.11e7
Yp1 (Yolk protein 1)	1	3.93e7	4.12e7		2.03e7	2.27e7
CG13896	1	4.38e7	3.76e7		2.19e7	1.77e7
mip120 (Myb-interacting protein 120)	1	3.14e7	3.02e7		1.62e7	1.45e7
chb (chromosome bows)	1	3.07e7	2.84e7		1.58e7	1.56e7
fau	1	2.87e7	4.20e7		1.67e7	2.34e7
fau	2	3.05e7	3.78e7		1.52e7	2.03e7
fau	3	4.20e7	5.54e7		1.95e7	2.45e7
fau	4	3.63e7	3.91e7		1.79e7	2.09e7
fau	5	4.14e7	4.25e7		2.11e7	1.94e7
fau	6	3.67e7	5.07e7		1.80e7	2.83e7
CG4461	1	2.26e7	2.96e7		1.27e7	1.29e7
CG32668	1	3.30e7	3.15e7		1.57e7	1.66e7
Cyt-b5-r (Cytochrome b5-related)	1	3.36e7	2.38e7		1.47e7	1.11e7
Est-6 (Esterase 6)	1	3.30e7	3.69e7		1.71e7	1.82e7

Looked up above.
For “calcium entry signal, replicate 2 (fluorescence units)”, fau #6 reads 5.07e7
PH4alphaEFB (prolyl-4-hydroxylase-alpha EFB) #1, calcium entry signal, replicate 1 (fluorescence units) = 3.23e7
Under “resting calcium signal, replicate 1 (fluorescence units)”, fau #4 has 1.79e7
Entry for CG33642 under “resting calcium signal, replicate 1 (fluorescence units)”: 1.95e7
For “resting calcium signal, replicate 2 (fluorescence units)”, fau #3 reads 2.45e7
Under “calcium entry signal, replicate 2 (fluorescence units)”, yl (yolkless) is entered as 3.46e7

The listing continues:
gene knocked down	reagent	calcium entry signal, replicate 1 (fluorescence units)	calcium entry signal, replicate 2 (fluorescence units)	entry to resting ratio	resting calcium signal, replicate 1 (fluorescence units)	resting calcium signal, replicate 2 (fluorescence units)
CG32568	1	3.15e7	3.23e7		1.68e7	1.40e7
ATPsyngamma (ATP synthase, gamma subunit)	1	4.01e7	3.84e7		1.96e7	1.85e7
CG3345	1	3.71e7			2.23e7	
CG5773	1	4.27e7	4.64e7		1.90e7	2.22e7
CR40450 + CG32767	1	2.34e7	1.83e7		1.05e7	8.02e6
CG11374	1	5.70e7	5.62e7		2.45e7	2.42e7
Jon99Ciii (Jonah 99Ciii)	1	1.84e7	3.28e7		1.27e7	1.86e7
CG10435	1	2.78e7	3.55e7		1.22e7	1.50e7
CG6325	1	3.46e7	5.00e7		1.57e7	2.01e7
CG12288	1	3.96e7	2.53e7		1.81e7	1.22e7
Had2 (beta Hydroxy acid dehydrogenase 2)	1	3.87e7	4.17e7		1.66e7	1.94e7
CG15628	1	4.19e7	3.88e7		2.52e7	2.11e7
CG15628	2	2.75e7	3.30e7		1.40e7	1.52e7
CG1640	1	4.41e7	4.06e7		1.92e7	1.84e7
Ufsp2 (UFM1 specific peptidase 2)	1	4.01e7	4.17e7		1.97e7	3.05e7
htk (hat-trick)	1	1.77e7	2.93e7		1.46e7	1.20e7
htk (hat-trick)	2	3.27e7	3.74e7		1.57e7	1.61e7
CG3253	1	4.01e7	3.51e7		2.00e7	1.78e7
CG16723	1	3.83e7	4.59e7		1.82e7	1.88e7
Dbp80 (Dead box protein 80)	1	3.13e7	5.13e7		1.50e7	2.62e7
osp (outspread)	1	2.79e7	4.56e7		1.57e7	2.16e7
osp (outspread)	2	4.79e7			2.18e7	
Ir93a (Ionotropic receptor 93a)	1	3.88e7	3.56e7		1.66e7	1.40e7
Ir93a (Ionotropic receptor 93a)	2	4.01e7	5.33e7		7.07e7	2.36e7
CG34253 + lncRNA:CR32194	1	4.10e7	3.62e7		1.96e7	2.06e7
SmydA-7 (SET and MYND domain containing, arthropod-specific, member 7)	1	4.22e7	4.10e7		1.93e7	1.87e7
PpD5 (Protein phosphatase D5)	1	3.48e7	4.11e7		1.52e7	1.61e7
PpD5 (Protein phosphatase D5)	2	3.79e7	4.54e7		1.84e7	1.95e7
Or85c (Odorant receptor 85c)	1	4.75e7	3.95e7		2.20e7	1.90e7
Nup133 (Nucleoporin 133kD)	1	4.97e7	3.06e7		2.61e7	1.64e7
CG15506	1	4.65e7	4.85e7		2.19e7	2.15e7
Slc25A46b	1	4.95e7	4.23e7		2.31e7	2.02e7
Grl62c (Gustatory receptor-like 62c)	1	3.53e7	3.60e7		1.60e7	1.73e7
fzr (fizzy-related)	1	3.23e7	4.65e7		1.57e7	2.13e7
nom (numerous disordered muscles)	1	5.20e7	3.63e7		2.35e7	1.69e7
CG6739	1	2.93e7	4.09e7		1.64e7	1.93e7
CG15073	1	5.57e7	5.41e7		2.30e7	2.63e7
tj (traffic jam)	1	6.02e7	4.64e7		2.77e7	2.24e7
Nepl21 (Neprilysin-like 21)	1	3.94e7	3.56e7		1.58e7	1.47e7
5-HT2B (5-hydroxytryptamine (serotonin) receptor 2B)	1	3.64e7	3.05e7		1.87e7	1.56e7
5-HT2B (5-hydroxytryptamine (serotonin) receptor 2B)	2	4.43e7	3.26e7		1.99e7	1.57e7
fwd (four wheel drive)	1	4.45e7	3.99e7		1.96e7	1.99e7
CG4957	1	4.04e7	5.25e7		1.76e7	2.29e7
RpL14 (Ribosomal protein L14)	1	1.10e7	1.08e7		8.38e6	7.50e6
CR40354 (pseudo)	1	2.41e7	2.92e7		1.14e7	1.28e7
CG5149	1	4.22e7			1.90e7	
CG10031	1	3.75e7	3.13e7		1.77e7	1.48e7
